The list is a part of this screen's results and no random one: it is rich in T/C values a quarter to a half above the control, in often repeated tests (any T/C) and in doses without a T/C. Further doses and runs are listed elsewhere. T/C: endpoint of the treated group in % of that of the vehicle group. Some entries give survivors of the animals treated and no T/C: the source holds a T/C of zero for them, seemingly a mark for toxic or unscored doses. Some survivor counts are full or nearly so, which does not show that the dose was tolerated: the source hardly ever lists a survival T/C far under the control, and the zero likely stands for such cases as well. Counts of survivors are from the toxicity check (mostly the fifth day) where no day follows; animals may have died later. Schedules are NCI's codes, read here as Q, the interval in days (D) or hours (H), X, the number of doses. Some entries were tested several times; the values are given in rising order. For survival time, this PubChem deposit counts one and a half times the control or more as active, and values a quarter to a half above the control carry no call in these data; other NCI protocols may use other cut-offs. Marks such as (2×) stand for listed records that agree. Some T/C values carry the count of animals alive at the toxicity check (mostly the fifth day); without a count, all were alive then.
System: B6C3F1 mice, ip Sarcoma M5076, median survival T/C
Assay: NCI In Vivo Anticancer Drug Screen. Data for tumor model Sarcoma M5076 (intraperitoneal) in B6C3F1 mice
Settings: T/C endpoint: median survival time, higher T/C = longer survival
Method: The antitumor activity of compounds was measured in mice bearing transplantable tumors. Survival or tumor size were measured and the results are expressed as the measurement made in the treated group (T) divided by the measurement made in the vehicle treated control group (C). The tumor model used in this assay is Sarcoma M5076 (intraperitoneal) in B6C3F1 mice

[1] = dose: 1.0 mg/kg/injection, schedule: Q04DX004 (ip), vehicle: Klucel (hydroxypropylcellulose) (HPC)
[2] = dose: 50.0 mg/kg/injection, schedule: Q04DX004 (ip), vehicle: saline with Tween-80
[3] = dose: 100.0 mg/kg/injection, schedule: Q04DX004 (ip), vehicle: saline with Tween-80
[4] = dose: 200.0 mg/kg/injection, schedule: Q04DX004 (ip), vehicle: saline with Tween-80
[5] = dose: 400.0 mg/kg/injection, schedule: Q04DX004 (ip), vehicle: saline with Tween-80

CO[C@H](/C(C)=C/C=C/C(C)=C/c1coc(C)n1)[C@H](C)[C@H]1C[C@@H](O)[C@@]2(C)O[C@H]2/C=C/[C@@H](C)[C@@H]2C[C@@H](CC(=O)O2)C[C@H]2O[C@@H]2C(=O)O1
T/C (dose: 0.06 mg/kg/injection, schedule: Q01DX013 (ip), vehicle: other): 139 % of control | T/C (dose: 0.06 mg/kg/injection, schedule: Q03HX012 (ip), vehicle: other): 129 % of control | T/C (dose: 0.09 mg/kg/injection, schedule: Q01DX013 (ip), vehicle: other): 143 % of control | T/C (dose: 0.09 mg/kg/injection, schedule: Q03HX012 (ip), vehicle: other): 133 % of control | T/C (dose: 0.13 mg/kg/injection, schedule: Q01DX013 (ip), vehicle: other): 134 % of control [9 of 10 alive on day 14] | T/C (dose: 0.13 mg/kg/injection, schedule: Q03HX012 (ip), vehicle: other): 139 % of control | T/C (dose: 0.13 mg/kg/injection, schedule: Q04DX004 (ip), vehicle: other): 125 % of control | T/C (dose: 0.2 mg/kg/injection, schedule: Q03HX012 (ip), vehicle: other): 144 % of control | T/C (dose: 0.2 mg/kg/injection, schedule: Q04DX004 (ip), vehicle: Klucel (hydroxypropylcellulose) (HPC)): 125 % of control (2×) | T/C (dose: 0.3 mg/kg/injection, schedule: Q03HX012 (ip), vehicle: other): 149 % of control | T/C (dose: 0.3 mg/kg/injection, schedule: Q04DX004 (ip), vehicle: Klucel (hydroxypropylcellulose) (HPC)): 130 % of control | T/C (dose: 0.3 mg/kg/injection, schedule: Q04DX004 (ip), vehicle: other): 130 and 133 % of control | T/C (dose: 0.44 mg/kg/injection, schedule: Q03HX012 (ip), vehicle: other): 143 % of control | T/C (dose: 0.44 mg/kg/injection, schedule: Q04DX004 (ip), vehicle: Klucel (hydroxypropylcellulose) (HPC)): 130 (2×) and 143 % of control | T/C (dose: 0.44 mg/kg/injection, schedule: Q04DX004 (ip), vehicle: other): 129, 133, 140 % of control | T/C (dose: 0.45 mg/kg/injection, schedule: Q01DX005 (sc), vehicle: other): 127 % of control | T/C (dose: 0.5 mg/kg/injection, schedule: Q04DX004 (ip), vehicle: Klucel (hydroxypropylcellulose) (HPC)): 147 % of control | survivor count (dose: 0.67 mg/kg/injection, schedule: Q01DX005 (sc), vehicle: other): 3 of 10 on day 14 | T/C (dose: 0.67 mg/kg/injection, schedule: Q04DX004 (ip), vehicle: Klucel (hydroxypropylcellulose) (HPC)): 142 and 147 % of control | T/C (dose: 0.67 mg/kg/injection, schedule: Q04DX004 (ip), vehicle: other): 134, 139, 140 % of control | T/C (dose: 0.67 mg/kg/injection, schedule: Q04DX004 (iv), vehicle: other): 127 % of control | survivor count (dose: 1.0 mg/kg/injection, schedule: Q01DX005 (sc), vehicle: other): 4 of 10 on day 14 | T/C [1]: 138, 150, 156 % of control | survivor count [1]: 7 of 10 on day 14 | T/C (dose: 1.0 mg/kg/injection, schedule: Q04DX004 (ip), vehicle: other): 132 and 139 % of control | T/C (dose: 1.0 mg/kg/injection, schedule: Q04DX004 (iv), vehicle: other): 127 % of control [9 of 10 alive on day 14] | T/C (dose: 1.5 mg/kg/injection, schedule: Q04DX004 (ip), vehicle: other): 137 % of control | survivor count (dose: 2.0 mg/kg/injection, schedule: Q04DX004 (ip), vehicle: Klucel (hydroxypropylcellulose) (HPC)): 2 of 10 on day 14 | T/C (dose: 187.5 micrograms/kg/injection, schedule: Q03HX008 (sc), vehicle: other): 127 % of control [9 of 10 alive on day 14]

CN=C(N)c1ccc(N=C(N)c2ccc(C(N)=Nc3ccc(C(N)=NC)cc3)cc2)cc1
T/C (dose: 10.8 mg/kg/injection, schedule: Q01DX005 (ip), vehicle: saline): 136 % of control | T/C (dose: 30.0 mg/kg/injection, schedule: Q01DX005 (ip), vehicle: saline): 148 % of control (2×) | survivor count (dose: 50.0 mg/kg/injection, schedule: Q01DX005 (ip), vehicle: saline): 6 of 10 on day 14 | survivor count (dose: 60.0 mg/kg/injection, schedule: Q01DX005 (ip), vehicle: saline): 1 of 10 on day 14 | survivor count (dose: 60.0 mg/kg/injection, schedule: Q04DX004 (ip), vehicle: saline): 0 of 10 on day 14 | survivor count (dose: 83.3 mg/kg/injection, schedule: Q01DX005 (ip), vehicle: saline): 0 of 10 on day 14 | survivor count (dose: 120.0 mg/kg/injection, schedule: Q04DX004 (ip), vehicle: saline): 0 of 10 on day 14

C=CC(=O)NCNC(=O)C=C
T/C (dose: 200.0 mg/kg/injection, schedule: Q04DX004 (ip), vehicle: suspension in saline): 137 % of control | survivor count (dose: 400.0 mg/kg/injection, schedule: Q04DX004 (ip), vehicle: suspension in saline): 0 of 10 on day 14 | survivor count (dose: 800.0 mg/kg/injection, schedule: Q04DX004 (ip), vehicle: suspension in saline): 0 of 10 on day 14

Oc1ccc(N=C2N=c3c(c4ccccc4c4ccccc34)=N2)c2ccccc12
survivor count [2]: 10 of 10 on day 14 | survivor count [3]: 10 of 10 on day 14 | survivor count [4]: 10 of 10 on day 14 | survivor count [5]: 10 of 10 on day 14 | survivor count (dose: 800.0 mg/kg/injection, schedule: Q04DX004 (ip), vehicle: saline with Tween-80): 8 of 10 on day 14

CCN(CC)C(=Nc1ccc(Cl)c(Cl)c1)SC(NC=O)=C(Cl)Cl
survivor count (dose: 400.0 mg/kg/injection, schedule: Q04DX004 (ip), vehicle: Klucel + Tween-80): 10 of 10 on day 14 | survivor count (dose: 800.0 mg/kg/injection, schedule: Q04DX004 (ip), vehicle: Klucel + Tween-80): 6 of 10 on day 14

O=C1C=C(N2CC2)C(=O)C(N2CC2)=C1N1CC1
survivor count (dose: 25.0 micrograms/kg/injection, schedule: Q04DX004 (ip), vehicle: saline): 0 of 10 on day 14 | survivor count (dose: 50.0 micrograms/kg/injection, schedule: Q04DX004 (ip), vehicle: saline): 0 of 10 on day 14 | survivor count (dose: 100.0 micrograms/kg/injection, schedule: Q04DX004 (ip), vehicle: saline): 0 of 10 on day 14 | survivor count (dose: 200.0 micrograms/kg/injection, schedule: Q04DX004 (ip), vehicle: saline): 0 of 10 on day 14 | survivor count (dose: 400.0 micrograms/kg/injection, schedule: Q04DX004 (ip), vehicle: saline): 0 of 10 on day 14

O=C(N/N=C/c1ccco1)c1ccc(OCc2nc3ccccc3[nH]2)cc1
survivor count [5]: 10 of 10 on day 14

Clc1ccccc1C(Cc1c(Cl)cccc1Cl)Cn1ccnc1 (stereo not given)
survivor count [4]: 1 of 10 on day 14

O=[N+]([O-])O.[Ga]
T/C (dose: 12.5 mg/kg/injection, schedule: Q04DX005 (ip), vehicle: saline): 127 % of control | survivor count (dose: 200.0 mg/kg/injection, schedule: Q04DX005 (ip), vehicle: saline): 4 of 8 on day 17

CNC(=S)C#N
survivor count (dose: 6.25 mg/kg/injection, schedule: Q04DX004 (ip), vehicle: saline + Tween-80 + alcohol): 5 of 8 on day 14 | survivor count (dose: 25.0 mg/kg/injection, schedule: Q04DX004 (ip), vehicle: saline + Tween-80 + alcohol): 6 of 10 on day 14 and 10 of 10 on day 14 | survivor count (dose: 50.0 mg/kg/injection, schedule: Q04DX004 (ip), vehicle: saline + Tween-80 + alcohol): 4 of 10 on day 14 | survivor count (dose: 100.0 mg/kg/injection, schedule: Q04DX004 (ip), vehicle: saline + Tween-80 + alcohol): 0 of 10 on day 14 | survivor count (dose: 200.0 mg/kg/injection, schedule: Q04DX004 (ip), vehicle: saline + Tween-80 + alcohol): 0 of 10 on day 14 | survivor count (dose: 400.0 mg/kg/injection, schedule: Q04DX004 (ip), vehicle: saline + Tween-80 + alcohol): 0 of 10 on day 14

CC(C)c1cc(C(=O)O)c(O)c(C(C)C)c1.CC(C)c1cc(C(=O)O)c(O)c(C(C)C)c1.[Cu]
survivor count (dose: 25.0 mg/kg/injection, schedule: Q04DX004 (ip), vehicle: saline with Tween-80): 9 of 10 on day 14 | survivor count [2]: 6 of 10 on day 14 | survivor count [3]: 0 of 10 on day 14 | survivor count [4]: 0 of 10 on day 14

— PubChem BioAssay AID292 (DTP/NCI, 2004)
